The list shows a part of the results. The calls rarely recur for the same compound in another form.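 Kinases, fused to nanoluciferase, were expressed in K562 cells; luminescence was measured every 4 h from 2 to 18 h as percent of control (DMSO = 100%, positive control = 0%). A time point is decreased if signal falls significantly (2 sigma). Hits were called by the authors by a rule that is not shown; the count of time points alone does not decide it.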
Tests used:
Experiment in all cases: number of time points (of 5) at which kinase-Nluc abundance scored as decreased, DMSO-normalised (count); higher = more persistent destabilization
Settings in all cases: K562; 2-18 h
FLT3 = FLT3 (UniProt P36888)
FYN = FYN (UniProt P06241)
GSK3A = GSK3A (UniProt P49840)
HER2 = HER2 (UniProt P04626)
INSRR = INSRR (UniProt P14616)
IRAK3 = IRAK3 (UniProt Q9Y616)
JAK1 = JAK1 (UniProt P23458)
LCK = LCK (UniProt P06239)
LIMK1 = LIMK1 (UniProt P53667)
LIMK2 = LIMK2 (UniProt P53671)
LMTK2 = LMTK2 (UniProt Q8IWU2)
LYN = LYN (UniProt P07948)
MAP2K1 = MAP2K1 (UniProt Q02750)
MAP2K2 = MAP2K2 (UniProt P36507)
MAP4K2 = MAP4K2 (UniProt Q12851)
MAPK1 = MAPK1 (UniProt P28482)
MAPK4 = MAPK4 (UniProt P31152)
MAPKAPK2 = MAPKAPK2 (UniProt P49137)
MKNK1 = MKNK1 (UniProt Q9BUB5)
NTRK2 = NTRK2 (UniProt Q16620)

By UniProt entry, the sequences of proteins in these tests, tags left out. Where a name states a change or a piece, a line headed by the entry shows the natural chain unless it says otherwise.
UniProt P36888, whole entry: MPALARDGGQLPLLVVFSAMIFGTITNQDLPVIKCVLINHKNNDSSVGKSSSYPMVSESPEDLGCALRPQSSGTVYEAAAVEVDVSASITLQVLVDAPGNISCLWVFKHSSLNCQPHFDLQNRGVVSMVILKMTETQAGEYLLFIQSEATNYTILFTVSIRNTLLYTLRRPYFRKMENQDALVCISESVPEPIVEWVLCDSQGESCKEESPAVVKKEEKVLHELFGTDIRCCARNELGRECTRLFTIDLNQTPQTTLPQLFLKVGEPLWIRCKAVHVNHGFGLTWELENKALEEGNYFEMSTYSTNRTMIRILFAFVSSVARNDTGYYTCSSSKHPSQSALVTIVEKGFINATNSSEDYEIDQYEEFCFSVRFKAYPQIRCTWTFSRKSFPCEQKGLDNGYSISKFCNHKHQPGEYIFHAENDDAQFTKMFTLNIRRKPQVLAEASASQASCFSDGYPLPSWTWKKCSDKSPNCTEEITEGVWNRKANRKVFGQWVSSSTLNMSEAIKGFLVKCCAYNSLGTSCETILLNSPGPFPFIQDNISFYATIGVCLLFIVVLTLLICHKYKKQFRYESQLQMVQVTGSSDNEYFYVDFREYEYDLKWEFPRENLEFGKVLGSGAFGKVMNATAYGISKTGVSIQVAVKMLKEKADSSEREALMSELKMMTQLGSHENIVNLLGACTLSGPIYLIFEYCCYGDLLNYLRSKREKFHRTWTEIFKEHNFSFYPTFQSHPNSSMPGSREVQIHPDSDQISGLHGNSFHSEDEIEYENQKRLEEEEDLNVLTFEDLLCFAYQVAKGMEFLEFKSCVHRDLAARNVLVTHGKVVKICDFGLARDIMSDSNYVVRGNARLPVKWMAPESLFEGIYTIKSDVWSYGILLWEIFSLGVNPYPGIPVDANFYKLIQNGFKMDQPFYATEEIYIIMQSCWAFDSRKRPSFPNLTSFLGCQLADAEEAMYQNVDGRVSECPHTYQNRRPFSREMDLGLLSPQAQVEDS
UniProt P49840: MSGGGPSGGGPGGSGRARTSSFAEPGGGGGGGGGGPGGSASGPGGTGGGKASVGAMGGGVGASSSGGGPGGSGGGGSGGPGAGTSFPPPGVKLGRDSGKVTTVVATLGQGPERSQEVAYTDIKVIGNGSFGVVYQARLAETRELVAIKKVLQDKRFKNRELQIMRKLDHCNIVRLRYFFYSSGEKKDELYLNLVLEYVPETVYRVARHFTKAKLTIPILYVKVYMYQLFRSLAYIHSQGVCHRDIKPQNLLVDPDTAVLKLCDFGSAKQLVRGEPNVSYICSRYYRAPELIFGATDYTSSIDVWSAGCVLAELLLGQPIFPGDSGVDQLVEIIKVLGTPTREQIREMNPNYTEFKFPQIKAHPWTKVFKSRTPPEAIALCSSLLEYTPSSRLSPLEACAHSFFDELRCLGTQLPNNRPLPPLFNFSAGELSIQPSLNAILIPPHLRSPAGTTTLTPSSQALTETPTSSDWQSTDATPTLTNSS
UniProt P14616: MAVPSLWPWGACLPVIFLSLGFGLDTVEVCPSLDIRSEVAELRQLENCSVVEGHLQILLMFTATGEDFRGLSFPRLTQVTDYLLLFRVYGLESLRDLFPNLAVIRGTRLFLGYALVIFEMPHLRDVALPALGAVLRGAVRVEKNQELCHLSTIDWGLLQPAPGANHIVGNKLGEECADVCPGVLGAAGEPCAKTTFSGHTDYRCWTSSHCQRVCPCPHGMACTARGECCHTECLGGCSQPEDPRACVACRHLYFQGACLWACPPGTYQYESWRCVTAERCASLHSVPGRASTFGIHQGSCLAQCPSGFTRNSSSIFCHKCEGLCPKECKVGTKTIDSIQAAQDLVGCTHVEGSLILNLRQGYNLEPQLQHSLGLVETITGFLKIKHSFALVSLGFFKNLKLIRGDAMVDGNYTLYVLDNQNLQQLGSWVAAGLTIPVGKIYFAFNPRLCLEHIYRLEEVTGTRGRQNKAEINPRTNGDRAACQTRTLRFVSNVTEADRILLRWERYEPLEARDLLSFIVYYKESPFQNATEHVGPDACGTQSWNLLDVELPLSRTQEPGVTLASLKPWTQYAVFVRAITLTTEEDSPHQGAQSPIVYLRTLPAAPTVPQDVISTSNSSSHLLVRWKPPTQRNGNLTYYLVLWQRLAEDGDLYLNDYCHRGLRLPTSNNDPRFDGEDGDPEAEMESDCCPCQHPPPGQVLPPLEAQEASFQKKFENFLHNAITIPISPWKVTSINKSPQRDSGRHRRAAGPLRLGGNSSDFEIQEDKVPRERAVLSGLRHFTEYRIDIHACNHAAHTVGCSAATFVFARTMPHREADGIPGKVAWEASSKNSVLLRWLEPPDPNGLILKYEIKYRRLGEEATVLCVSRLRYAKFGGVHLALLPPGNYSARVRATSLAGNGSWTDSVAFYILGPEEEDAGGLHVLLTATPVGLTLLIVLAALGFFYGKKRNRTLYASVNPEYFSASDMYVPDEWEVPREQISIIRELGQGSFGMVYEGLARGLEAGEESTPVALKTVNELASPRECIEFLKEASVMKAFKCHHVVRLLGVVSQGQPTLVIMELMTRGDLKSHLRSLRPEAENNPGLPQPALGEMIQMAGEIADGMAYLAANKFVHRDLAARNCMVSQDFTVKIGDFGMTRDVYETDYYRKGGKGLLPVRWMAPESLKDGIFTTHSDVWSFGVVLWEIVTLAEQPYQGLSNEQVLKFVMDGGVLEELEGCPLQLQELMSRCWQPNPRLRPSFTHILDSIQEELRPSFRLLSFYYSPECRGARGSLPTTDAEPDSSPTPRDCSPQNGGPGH
UniProt Q9Y616: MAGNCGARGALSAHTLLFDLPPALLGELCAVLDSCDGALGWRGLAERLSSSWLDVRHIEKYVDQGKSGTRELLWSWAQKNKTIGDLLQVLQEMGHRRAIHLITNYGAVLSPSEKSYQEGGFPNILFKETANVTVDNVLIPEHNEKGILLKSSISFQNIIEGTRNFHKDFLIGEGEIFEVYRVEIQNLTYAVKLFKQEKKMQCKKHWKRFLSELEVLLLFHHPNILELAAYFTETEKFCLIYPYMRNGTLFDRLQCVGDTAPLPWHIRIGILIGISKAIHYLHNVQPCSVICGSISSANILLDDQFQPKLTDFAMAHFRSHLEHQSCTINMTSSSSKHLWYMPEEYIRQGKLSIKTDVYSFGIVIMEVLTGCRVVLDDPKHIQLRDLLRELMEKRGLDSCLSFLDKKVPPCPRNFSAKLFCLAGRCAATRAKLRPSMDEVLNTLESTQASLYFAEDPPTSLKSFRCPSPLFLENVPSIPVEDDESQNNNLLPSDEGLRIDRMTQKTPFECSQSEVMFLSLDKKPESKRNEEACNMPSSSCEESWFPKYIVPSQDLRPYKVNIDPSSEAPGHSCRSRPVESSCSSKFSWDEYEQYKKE
UniProt P53667: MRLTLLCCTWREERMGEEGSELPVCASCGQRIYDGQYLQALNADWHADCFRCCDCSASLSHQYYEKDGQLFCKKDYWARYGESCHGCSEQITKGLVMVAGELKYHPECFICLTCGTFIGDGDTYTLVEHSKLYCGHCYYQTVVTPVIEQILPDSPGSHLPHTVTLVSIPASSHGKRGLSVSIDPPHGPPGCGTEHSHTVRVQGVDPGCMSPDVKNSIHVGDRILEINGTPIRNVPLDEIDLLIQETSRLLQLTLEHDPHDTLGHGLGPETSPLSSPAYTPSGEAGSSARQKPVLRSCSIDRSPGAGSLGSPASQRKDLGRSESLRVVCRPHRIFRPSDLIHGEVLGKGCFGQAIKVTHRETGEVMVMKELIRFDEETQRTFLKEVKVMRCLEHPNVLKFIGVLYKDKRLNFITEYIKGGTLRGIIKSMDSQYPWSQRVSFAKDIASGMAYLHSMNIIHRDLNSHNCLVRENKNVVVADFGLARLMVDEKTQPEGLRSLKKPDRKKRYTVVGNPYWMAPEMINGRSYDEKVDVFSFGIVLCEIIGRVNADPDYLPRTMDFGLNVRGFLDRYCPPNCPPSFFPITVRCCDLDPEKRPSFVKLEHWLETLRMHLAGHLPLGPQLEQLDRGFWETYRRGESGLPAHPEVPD
UniProt P53671: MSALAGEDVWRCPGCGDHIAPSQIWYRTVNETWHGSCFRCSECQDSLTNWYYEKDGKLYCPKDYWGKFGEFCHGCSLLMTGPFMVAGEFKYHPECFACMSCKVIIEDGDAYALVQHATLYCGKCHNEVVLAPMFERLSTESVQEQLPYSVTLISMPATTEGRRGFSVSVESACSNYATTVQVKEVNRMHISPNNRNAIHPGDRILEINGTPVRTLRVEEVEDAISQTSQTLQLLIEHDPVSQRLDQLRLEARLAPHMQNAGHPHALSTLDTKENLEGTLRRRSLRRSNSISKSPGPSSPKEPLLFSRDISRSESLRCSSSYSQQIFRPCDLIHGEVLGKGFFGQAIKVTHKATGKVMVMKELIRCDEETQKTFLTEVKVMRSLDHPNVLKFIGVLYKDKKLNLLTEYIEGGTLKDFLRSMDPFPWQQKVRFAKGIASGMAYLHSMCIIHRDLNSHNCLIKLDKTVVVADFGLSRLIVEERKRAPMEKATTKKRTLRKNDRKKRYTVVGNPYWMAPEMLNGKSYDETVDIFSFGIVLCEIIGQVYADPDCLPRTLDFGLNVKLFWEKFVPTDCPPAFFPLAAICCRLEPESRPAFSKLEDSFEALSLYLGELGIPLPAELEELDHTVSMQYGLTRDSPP
UniProt P07948: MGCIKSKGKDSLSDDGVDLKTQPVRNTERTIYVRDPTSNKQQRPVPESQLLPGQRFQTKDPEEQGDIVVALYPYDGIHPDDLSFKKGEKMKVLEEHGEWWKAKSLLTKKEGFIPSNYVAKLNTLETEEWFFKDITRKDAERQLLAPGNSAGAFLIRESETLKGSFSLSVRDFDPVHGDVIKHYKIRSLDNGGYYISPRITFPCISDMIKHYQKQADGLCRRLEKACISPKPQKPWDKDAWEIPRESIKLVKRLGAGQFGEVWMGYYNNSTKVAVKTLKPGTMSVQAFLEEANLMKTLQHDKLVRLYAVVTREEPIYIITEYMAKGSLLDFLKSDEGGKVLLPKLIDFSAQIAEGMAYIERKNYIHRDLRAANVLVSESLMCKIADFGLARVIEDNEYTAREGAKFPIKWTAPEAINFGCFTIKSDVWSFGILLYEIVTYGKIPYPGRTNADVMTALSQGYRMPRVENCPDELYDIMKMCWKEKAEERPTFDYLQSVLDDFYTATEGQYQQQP
UniProt P28482, whole entry: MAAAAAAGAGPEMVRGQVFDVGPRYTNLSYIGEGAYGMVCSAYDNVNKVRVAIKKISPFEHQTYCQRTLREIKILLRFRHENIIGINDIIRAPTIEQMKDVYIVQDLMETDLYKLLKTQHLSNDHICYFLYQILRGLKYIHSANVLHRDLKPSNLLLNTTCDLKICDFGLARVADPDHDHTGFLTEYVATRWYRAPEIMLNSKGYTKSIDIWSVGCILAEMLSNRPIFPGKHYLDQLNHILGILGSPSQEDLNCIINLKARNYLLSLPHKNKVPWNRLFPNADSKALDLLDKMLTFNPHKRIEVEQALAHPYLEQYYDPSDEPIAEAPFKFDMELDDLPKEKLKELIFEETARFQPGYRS
UniProt P31152, whole entry: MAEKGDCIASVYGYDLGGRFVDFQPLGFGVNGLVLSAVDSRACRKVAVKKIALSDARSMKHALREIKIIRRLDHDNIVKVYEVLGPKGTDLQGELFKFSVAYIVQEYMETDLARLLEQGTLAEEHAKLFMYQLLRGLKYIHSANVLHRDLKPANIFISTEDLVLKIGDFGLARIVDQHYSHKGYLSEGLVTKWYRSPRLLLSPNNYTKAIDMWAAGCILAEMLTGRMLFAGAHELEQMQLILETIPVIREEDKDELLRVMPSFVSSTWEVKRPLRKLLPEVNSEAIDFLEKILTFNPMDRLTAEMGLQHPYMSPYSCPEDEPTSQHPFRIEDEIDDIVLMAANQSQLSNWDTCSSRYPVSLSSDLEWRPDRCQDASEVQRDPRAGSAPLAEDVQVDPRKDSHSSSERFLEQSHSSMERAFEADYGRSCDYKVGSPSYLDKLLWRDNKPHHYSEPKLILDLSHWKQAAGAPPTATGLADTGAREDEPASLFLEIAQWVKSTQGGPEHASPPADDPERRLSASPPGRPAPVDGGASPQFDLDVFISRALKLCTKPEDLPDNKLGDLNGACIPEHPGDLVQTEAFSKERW
UniProt P49137, whole entry, looked up: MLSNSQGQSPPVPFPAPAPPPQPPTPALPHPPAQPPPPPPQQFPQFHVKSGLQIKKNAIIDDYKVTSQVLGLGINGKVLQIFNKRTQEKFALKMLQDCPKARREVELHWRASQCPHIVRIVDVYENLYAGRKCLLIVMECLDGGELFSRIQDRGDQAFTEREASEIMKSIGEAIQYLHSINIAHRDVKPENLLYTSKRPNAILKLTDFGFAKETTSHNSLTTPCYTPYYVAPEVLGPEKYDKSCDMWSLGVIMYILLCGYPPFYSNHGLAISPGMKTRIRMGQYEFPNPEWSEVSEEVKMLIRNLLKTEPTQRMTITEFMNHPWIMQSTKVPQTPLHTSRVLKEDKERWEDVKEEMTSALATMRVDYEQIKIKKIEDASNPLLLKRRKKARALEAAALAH

Measured: number of time points

CNc1cc(Nc2cccn(-c3ccccn3)c2=O)nn2c(C(=O)N[C@@H]3C[C@@H]3F)cnc12 (2.5 µM)
0: FLT3 | FYN | GSK3A | HER2 | INSRR | IRAK3 | JAK1 | LCK | LIMK1 | LIMK2 | LMTK2 | LYN | MAP2K1 | MAP2K2 | MAP4K2 | MAPK1 | MAPK4 | MAPKAPK2 | MKNK1 | NTRK2

COc1cc2ncnc(Nc3ccc(F)c(Cl)c3)c2cc1NC(=O)/C=C/CN1CCCCC1 [Dacomitinib] (10 µM)
4: HER2
0: FLT3 | FYN | GSK3A | INSRR | IRAK3 | JAK1 | LCK | LIMK1 | LIMK2 | LMTK2 | LYN | MAP2K1 | MAP2K2 | MAP4K2 | MAPK1 | MAPK4 | MAPKAPK2 | MKNK1 | NTRK2

Nc1ncnc2c1c(COc1cccc(Cl)c1)nn2C1CCOCC1 (10 µM)
0: FLT3 | FYN | GSK3A | HER2 | INSRR | IRAK3 | JAK1 | LCK | LIMK1 | LIMK2 | LMTK2 | LYN | MAP2K1 | MAP2K2 | MAP4K2 | MAPK1 | MAPK4 | MAPKAPK2 | MKNK1 | NTRK2

O=C(O)c1cc(N(Cc2ccccc2O)Cc2ccccc2O)ccc1O [Lavendustin B] (10 µM)
0: FLT3 | FYN | GSK3A | HER2 | INSRR | IRAK3 | JAK1 | LCK | LIMK1 | LIMK2 | LMTK2 | LYN | MAP2K1 | MAP2K2 | MAP4K2 | MAPK1 | MAPK4 | MAPKAPK2 | MKNK1 | NTRK2

CC(C)=CC(=O)O[C@H]1Cc2cc3ccc(=O)oc3cc2OC1(C)C [Decursin] (10 µM)
0: FLT3 | FYN | GSK3A | HER2 | INSRR | IRAK3 | JAK1 | LCK | LIMK1 | LIMK2 | LMTK2 | LYN | MAP2K1 | MAP2K2 | MAP4K2 | MAPK1 | MAPK4 | MAPKAPK2 | MKNK1 | NTRK2

C=CC(=O)Nc1cccc(-c2cccc3cnc(Nc4ccc(N5CCN(CCO)CC5)c(F)c4F)nc23)c1 [Olafertinib] (2.5 µM)
0: FLT3 | FYN | GSK3A | HER2 | INSRR | IRAK3 | JAK1 | LCK | LIMK1 | LIMK2 | LMTK2 | LYN | MAP2K1 | MAP2K2 | MAP4K2 | MAPK1 | MAPK4 | MAPKAPK2 | MKNK1 | NTRK2

3 structures already listed, arranged by molar mass, low to high.
CC(C)=CC(=O)O[C@H]1Cc2cc3ccc(=O)oc3cc2OC1(C)C [Decursin] (10 µM)
0: FLT3 | FYN | GSK3A | HER2 | INSRR | IRAK3 | JAK1 | LCK | LIMK1 | LIMK2 | LMTK2 | LYN | MAP2K1 | MAP2K2 | MAP4K2 | MAPK1 | MAPK4 | MAPKAPK2 | MKNK1 | NTRK2

Nc1ncnc2c1c(COc1cccc(Cl)c1)nn2C1CCOCC1 (10 µM)
0: FLT3 | FYN | GSK3A | HER2 | INSRR | IRAK3 | JAK1 | LCK | LIMK1 | LIMK2 | LMTK2 | LYN | MAP2K1 | MAP2K2 | MAP4K2 | MAPK1 | MAPK4 | MAPKAPK2 | MKNK1 | NTRK2

C=CC(=O)Nc1cccc(-c2cccc3cnc(Nc4ccc(N5CCN(CCO)CC5)c(F)c4F)nc23)c1 [Olafertinib] (2.5 µM)
0: FLT3 | FYN | GSK3A | HER2 | INSRR | IRAK3 | JAK1 | LCK | LIMK1 | LIMK2 | LMTK2 | LYN | MAP2K1 | MAP2K2 | MAP4K2 | MAPK1 | MAPK4 | MAPKAPK2 | MKNK1 | NTRK2

Additional results:

N#Cc1ccnc(Nc2cc(C3CCN(C4COC4)CC3)cc(N3CCC(F)(F)C3)n2)c1 (2.5 µM)
3: HER2
0: FLT3 | FYN | GSK3A | INSRR | IRAK3 | JAK1 | LCK | LIMK1 | LIMK2 | LMTK2 | LYN | MAP2K1 | MAP2K2 | MAP4K2 | MAPK1 | MAPK4 | MAPKAPK2 | MKNK1 | NTRK2

C[C@@H]1O[C@@H](O[C@@H]2[C@@H](O)[C@H](OCCc3ccc(O)c(O)c3)O[C@H](CO)[C@H]2OC(=O)/C=C/c2ccc(O)c(O)c2)[C@H](O)[C@H](O)[C@H]1O [Verbascoside] (10 µM)
0: FLT3 | FYN | GSK3A | HER2 | INSRR | IRAK3 | JAK1 | LCK | LIMK1 | LIMK2 | LMTK2 | LYN | MAP2K1 | MAP2K2 | MAP4K2 | MAPK1 | MAPK4 | MAPKAPK2 | MKNK1 | NTRK2

Cn1cc(C2=C(c3cn(CCCSC(=N)N)c4ccccc34)C(=O)NC2=O)c2ccccc21 [Ro 31-8220 (mesylate)] (2.5 µM)
3: JAK1 | LMTK2
4: FLT3
1: FYN
2: HER2
0: GSK3A | INSRR | IRAK3 | LCK | LIMK1 | LIMK2 | LYN | MAP2K1 | MAP2K2 | MAP4K2 | MAPK1 | MAPK4 | MAPKAPK2 | MKNK1 | NTRK2

O=C(Nc1cccc(Nc2ncc(Br)c(NCCc3cnc[nH]3)n2)c1)N1CCCC1 (10 µM)
3: FYN | IRAK3 | JAK1 | LIMK1
2: INSRR
1: LIMK2
0: FLT3 | GSK3A | HER2 | LCK | LMTK2 | LYN | MAP2K1 | MAP2K2 | MAP4K2 | MAPK1 | MAPK4 | MAPKAPK2 | MKNK1 | NTRK2

Cn1cc(-c2cnc3cnn(S(=O)(=O)c4cnc5ccc(-c6cnn(C)c6)cn45)c3c2)cn1 [Glumetinib] (10 µM)
0: FLT3 | FYN | GSK3A | HER2 | INSRR | IRAK3 | JAK1 | LCK | LIMK1 | LIMK2 | LMTK2 | LYN | MAP2K1 | MAP2K2 | MAP4K2 | MAPK1 | MAPK4 | MAPKAPK2 | MKNK1 | NTRK2

— the supplement of paper PMC12823440, “Inhibitors supercharge kinase turnover through native proteolytic circuits” (Nature, 2025)
